Laboratory results: patent US7056913B2, “C8—linked pyrrolo[2,1-c][1,4]benzodiazepine-acridone/acridine hybrids” (Council of Scientific and Industrial Research, priority 2004, dated 2006)
At least one structure is not confirmed: it was looked up by name or label, or the drawing left a doubt.

What was measured:
[1] = tested on: Prostate cancer cell lines; experiment: NCI in vitro cytotoxicity, SRB assay, cancer type average; assay type: cell-based, human; settings: average of six to nine cell lines
[2] = tested on: Leukemia cancer cell lines; experiment: as above; assay type: cell-based, human; settings: average of six to nine cell lines

COc1cc2c(cc1OCCCNC(=O)c1cccc3c(=O)c4ccccc4[nH]c13)N=C[C@@H]1CCCN1C2=O [Compound IV, 7-methoxy-8-[3′-(4″-acridonylcarboxamido)propyl]-oxy-(11aS)1,2,3,11a-tetrahydro-5H-pyrrolo[2,1-c][1,4]benzodiazepin-5-one]
Log LC50 (concentration in mol/L causing 50% lethality) [1]: −4.00 mol/L | Log LC50 (concentration in mol/L causing 50% lethality) [2]: −4.00 mol/L
